Experiment: Estimated absorbed doses in humans from SPECT images in monkeys
Format: in vivo

O=C(O)CC[C@H](NC(=O)N[C@@H](CCCCNC(=O)[C@@H](Cc1ccc2ccccc2c1)NC(=O)c1ccc(CNC(=O)[C@@H](CCC(=O)O)NC(=O)[C@@H](CCC(=O)O)NC(=O)Cc2ccc([211At])cc2)cc1)C(=O)O)C(=O)O [[^211At]PSMA-5]
Estimated absorbed dose from monkey (human estimate from monkey SPECT 1, 3, 24 hrs, Salivary glands): 3.51 mGy/MBq | Estimated absorbed dose from monkey (human estimate from monkey SPECT, Heart): 0.93 mGy/MBq | Estimated absorbed dose from monkey (human estimate from monkey SPECT, Kidney): 1.41 mGy/MBq | Estimated absorbed dose from monkey (human estimate from monkey SPECT, Liver): 0.25 mGy/MBq

Reference: article PMC11172375, “Preclinical Evaluation of Biodistribution and Toxicity of [^211At]PSMA-5 in Mice and Primates for the Targeted Alpha Therapy against Prostate Cancer” (International Journal of Molecular Sciences, 2024)
